Earlier results, collected in patent publication US20250034331A1, “POLYESTER URETHANE BIORESORBABLE ELASTOMERS WITH MICROSTRUCTURES FOR TUNABLE DRUG RELEASE AND TUNABLE DEGRADATION” (SOLESIS, INC., priority 2023, published 2025).

Details: 25° C.

C[C@@H]1C[C@H]2[C@@H]3CCC4=CC(=O)C=C[C@]4(C)[C@@]3(F)[C@@H](O)C[C@]2(C)[C@@]1(O)C(=O)CO [dexamethasone]
solubility in PBS: around 75 μg/mL
